Experimental data: PubChem BioAssay AID1224826 (NIAID, 2016)

Screen: 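Regulators of Tlr4 signalling leading to Tnf-alpha expression in macrophages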 (primary screen)
System: RAW264.7 G9 macrophages from mouse bearing reporters for p65 (GFP) and the Tnf promoter (mCherry)
Reagents: siRNA pool against mouse genes, 100 nM
Time to read-out: 16 h of LPS stimulation, after 2 days of siRNA transfection
Challenge: bacterial lipopolysaccharide (Salmonella minnesota R595), 10 ng/ml
Detection: 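Nuclear mCherry signal of the Tnf promoter reporter measured by imaging after background removal, scaled to each plate median and turned into robust z-scores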
Scale: Tnf reporter robust z-score: higher = stronger Tnf promoter reporter signal after LPS
Rule for the call: 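a well counts as active at a score of -1.3 or below (Tlr4 knock-down control median) or above 3 (raised signal); controls and wells holding fewer than 50 cells are excluded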
Meaning of the calls: active = Tnf reporter clearly lowered or raised; inactive = no clear change in Tnf reporter
The deposit covers about 17,000 reagents; shown is a random part of them. Of all reagents, about 1,110 (6.6%) were called active. 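Active means lowered or raised reporter signal; replicate intensities are raw and not normalised per plate.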 Entries without a mark were called inactive. Not all columns of the deposit are shown. Reagent sequences are not shown.

target gene	Tnf reporter robust z-score	fewer than 50 cells in well
Hsh2d	-0.97	enough cells in well
Luc7l3	2.37	enough cells in well
Or5d37	-0.78	enough cells in well
Eml6	-0.14	enough cells in well
A030005K14Rik	-1.04	enough cells in well
Foxc1	-0.52	enough cells in well
Ube4b	0.09	enough cells in well
Orm1	-0.24	enough cells in well
Ift20	2.31	enough cells in well
Samd9l	0.13	enough cells in well
Brms1	2.46	enough cells in well
Vax2	-0.73	enough cells in well
Or9s13	-1.5 (active)	enough cells in well
Matk	0.22	enough cells in well
Camk2b	0.2	enough cells in well
Nat8f5	1.07	enough cells in well
Fgd3	-0.01	enough cells in well
Inpp4b	0.09	enough cells in well
Gna11	1.04	enough cells in well
E330013P04Rik	-1.63 (active)	enough cells in well
Prps1	0.62	enough cells in well
Vasn		fewer than 50 cells per well; well left out of calls
Rnase1	1.44	enough cells in well
Gnao1	-0.34	enough cells in well
Sds	1.66	enough cells in well
Fas	-0.75	enough cells in well

Records listed so far marked active, once more:
target gene	Tnf reporter robust z-score	fewer than 50 cells in well
Or9s13	-1.5 (active)	enough cells in well
E330013P04Rik	-1.63 (active)	enough cells in well

Additional records follow:
target gene	Tnf reporter robust z-score	fewer than 50 cells in well
Pabpc2	1.59	enough cells in well
Or52b3	-1.03	enough cells in well
Clec7a	-0.39	enough cells in well
Tuft1	-0.63	enough cells in well
Fyttd1		fewer than 50 cells per well; well left out of calls
Abcb4	1.58	enough cells in well
Rtl8a	2.51	enough cells in well
Mtf1	1.4	enough cells in well
Rras2	-0.23	enough cells in well
Arrdc4	-1.81 (active)	enough cells in well
4631423B10Rik	-0.81	enough cells in well
Smpdl3b		fewer than 50 cells per well; well left out of calls
Or4c12b	-0.38	enough cells in well
Scd4	1	enough cells in well
Try4	3.15 (active)	enough cells in well
Or4p19	-0.66	enough cells in well
Zfp772	0.35	enough cells in well
Dpy30		fewer than 50 cells per well; well left out of calls
Igsf1		fewer than 50 cells per well; well left out of calls
Pigr	0.32	enough cells in well
F3	0.86	enough cells in well
Arpin		fewer than 50 cells per well; well left out of calls
Gtf2e1	-0.82	enough cells in well
Net1	-0.6	enough cells in well
Ctsb	0.11	enough cells in well
Acbd4	2.07	enough cells in well
Lats2	0.49	enough cells in well
Pdgfra	1.69	enough cells in well
Vapa	0.12	enough cells in well
Prpf4	1.45	enough cells in well
Trim62	1.12	enough cells in well
Vipas39	-0.82	enough cells in well
